This is an account of results in paper PMC2806001.

Residue numbers refer to the chain shown, from its start. Results are given in words; binding and its absence hold for the method and conditions named. Some results given as binding are weak or reduced against the parent protein; the word gives no strength.

Test [1] concerns the target T1, p66CH2CB WT (N-terminal domains CH2 and CB of p66Shc, residues 1-150) (UniProt P29353).
T1 sequence: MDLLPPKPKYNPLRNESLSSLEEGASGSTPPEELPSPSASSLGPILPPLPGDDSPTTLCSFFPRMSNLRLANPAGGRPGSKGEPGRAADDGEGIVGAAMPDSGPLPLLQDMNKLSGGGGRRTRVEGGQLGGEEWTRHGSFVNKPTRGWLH
Description: native gel or EMSA; BN-PAGE; 15 μg p66CH2CB with 30 μg decameric Prx1-Cys52Ser and 5/10/20 μg Trx1 in the presence of 3 mM EDTA; both purified. (Mobility shift assays separate free from complexed probe on a gel.)

Test [2] has as its target T2, Peroxiredoxin 1 (Prx1) WT, recombinant (mouse), P35700.
T2 chain: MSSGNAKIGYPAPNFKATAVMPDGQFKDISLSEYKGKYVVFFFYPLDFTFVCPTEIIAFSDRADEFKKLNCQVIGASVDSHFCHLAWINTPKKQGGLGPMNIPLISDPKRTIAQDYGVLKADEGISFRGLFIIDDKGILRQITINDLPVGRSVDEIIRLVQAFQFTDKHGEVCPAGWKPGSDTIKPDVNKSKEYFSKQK
Nature of the test: non-reducing SDS-PAGE (disulfide-linked forms); 10 μg p66CH2CB incubated with Prx1 for 1 hour at room temperature (or with 0.005 % H2O2); loading buffer devoid of reducing agents, 5 min at 95 °C; both purified. The settings on record: remark: other sources report otherwise.

Test [3] addresses T1, p66CH2CB WT (N-terminal domains CH2 and CB of p66Shc, residues 1-150). Nature of the test: native gel or EMSA; BN-PAGE of purified recombinant proteins incubated for 1 hour at room temperature (20 μg p66CH2CB with 40 μg Prx1 WT or 20 μg Prx1-Cys83Ser); bands cut out and separated in a second, denaturing SDS-PAGE dimension; both purified.
In the next test the target is T3, p66CH2CB-Cys59Ser (UniProt P29353).
T3 sequence: T1 sequence with C59S
Described as above.

For test [4], the target named is T1, p66CH2CB WT (N-terminal domains CH2 and CB of p66Shc, residues 1-150). Description: non-reducing SDS-PAGE (disulfide-linked forms); 10 μg p66CH2CB incubated with Prx1 for 1 hour at room temperature (or with 0.005 % H2O2); loading buffer devoid of reducing agents, 5 min at 95 °C; both purified.

B1: Prx1-Cys52Ser (enzyme, UniProt P35700 1-199)
chain: T2 chain with C52S
With B1, the binding entry in test [1] is recorded as “binds”.

B2: Peroxiredoxin 1 (Prx1) WT, recombinant, P35700 1-199 (enzyme)
chain: T2 chain
Take B2: the binding entry in test [2] was “binds”.

B3: Prx1-Cys83Ser (enzyme, UniProt P35700 1-199)
chain: T2 chain with C83S
In the case of B3, the binding result (in test [3]; in the test with p66CH2CB-Cys59Ser) was “binds” each time.

B4: Peroxiredoxin 1 (Prx1) WT, recombinant (enzyme, UniProt P35700 1-199)
chain: T2 chain
Consider B4, for which, in the test with p66CH2CB-Cys59Ser, the binding result was “binds”.

B5: p66CH2CB WT (N-terminal domains CH2 and CB of p66Shc, residues 1-150) (domain or fragment, UniProt P29353-1 1-150)
chain: T1 sequence
As for B5, in test [4], the binding result was “binds”.
